According to patent US20150191520A1:
No constants are given. Whether binding was seen depends on the method and setting. A result given as binding can be weak or reduced; the word gives no strength.

Sequences of proteins named here, by UniProt entry; tags and fusion partners are left off. A change or cut given only in a name is not applied to a line headed by its entry. Residues count along the entry.
UniProt P01024: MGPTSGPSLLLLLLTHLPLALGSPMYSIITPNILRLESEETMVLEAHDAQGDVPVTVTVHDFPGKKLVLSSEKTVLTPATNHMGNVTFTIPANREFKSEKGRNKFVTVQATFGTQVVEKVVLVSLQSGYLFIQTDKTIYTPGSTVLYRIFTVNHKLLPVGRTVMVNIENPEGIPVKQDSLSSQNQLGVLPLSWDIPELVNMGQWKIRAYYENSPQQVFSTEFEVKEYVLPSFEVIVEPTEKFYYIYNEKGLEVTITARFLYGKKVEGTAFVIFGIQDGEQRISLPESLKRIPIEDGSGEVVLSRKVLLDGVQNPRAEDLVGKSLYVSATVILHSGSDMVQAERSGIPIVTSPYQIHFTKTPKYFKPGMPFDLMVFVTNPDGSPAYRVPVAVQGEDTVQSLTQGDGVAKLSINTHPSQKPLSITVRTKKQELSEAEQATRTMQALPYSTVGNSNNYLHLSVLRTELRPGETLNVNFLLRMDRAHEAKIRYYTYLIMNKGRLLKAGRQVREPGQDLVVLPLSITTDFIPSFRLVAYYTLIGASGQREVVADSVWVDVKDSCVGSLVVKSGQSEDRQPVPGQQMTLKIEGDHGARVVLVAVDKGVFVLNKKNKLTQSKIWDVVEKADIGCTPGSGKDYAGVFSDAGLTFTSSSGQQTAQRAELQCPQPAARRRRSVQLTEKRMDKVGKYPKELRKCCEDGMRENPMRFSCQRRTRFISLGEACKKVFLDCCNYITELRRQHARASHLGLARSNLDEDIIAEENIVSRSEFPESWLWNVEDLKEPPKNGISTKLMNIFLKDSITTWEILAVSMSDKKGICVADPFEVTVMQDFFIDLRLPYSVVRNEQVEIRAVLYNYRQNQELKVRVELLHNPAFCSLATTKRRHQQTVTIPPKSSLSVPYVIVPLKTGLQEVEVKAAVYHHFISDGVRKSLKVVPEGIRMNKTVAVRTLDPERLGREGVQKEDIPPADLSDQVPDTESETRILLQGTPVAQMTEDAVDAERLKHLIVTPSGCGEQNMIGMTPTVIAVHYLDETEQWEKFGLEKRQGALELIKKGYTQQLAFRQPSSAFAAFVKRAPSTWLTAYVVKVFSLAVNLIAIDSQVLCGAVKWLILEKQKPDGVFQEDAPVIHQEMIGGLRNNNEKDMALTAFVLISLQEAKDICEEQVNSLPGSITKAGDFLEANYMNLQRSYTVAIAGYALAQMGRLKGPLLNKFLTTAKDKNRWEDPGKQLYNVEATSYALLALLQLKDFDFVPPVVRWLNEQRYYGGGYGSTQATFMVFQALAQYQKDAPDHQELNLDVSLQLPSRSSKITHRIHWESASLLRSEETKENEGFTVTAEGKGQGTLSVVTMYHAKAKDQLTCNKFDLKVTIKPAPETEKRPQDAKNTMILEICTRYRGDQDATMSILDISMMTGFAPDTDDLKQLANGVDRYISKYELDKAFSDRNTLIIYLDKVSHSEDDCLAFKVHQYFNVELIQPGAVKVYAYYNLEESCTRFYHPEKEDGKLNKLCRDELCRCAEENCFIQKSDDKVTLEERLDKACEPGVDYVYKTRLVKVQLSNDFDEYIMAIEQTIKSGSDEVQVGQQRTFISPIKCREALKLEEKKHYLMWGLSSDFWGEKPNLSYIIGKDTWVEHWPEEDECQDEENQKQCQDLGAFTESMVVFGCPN
UniProt P17927, residues 42-1971: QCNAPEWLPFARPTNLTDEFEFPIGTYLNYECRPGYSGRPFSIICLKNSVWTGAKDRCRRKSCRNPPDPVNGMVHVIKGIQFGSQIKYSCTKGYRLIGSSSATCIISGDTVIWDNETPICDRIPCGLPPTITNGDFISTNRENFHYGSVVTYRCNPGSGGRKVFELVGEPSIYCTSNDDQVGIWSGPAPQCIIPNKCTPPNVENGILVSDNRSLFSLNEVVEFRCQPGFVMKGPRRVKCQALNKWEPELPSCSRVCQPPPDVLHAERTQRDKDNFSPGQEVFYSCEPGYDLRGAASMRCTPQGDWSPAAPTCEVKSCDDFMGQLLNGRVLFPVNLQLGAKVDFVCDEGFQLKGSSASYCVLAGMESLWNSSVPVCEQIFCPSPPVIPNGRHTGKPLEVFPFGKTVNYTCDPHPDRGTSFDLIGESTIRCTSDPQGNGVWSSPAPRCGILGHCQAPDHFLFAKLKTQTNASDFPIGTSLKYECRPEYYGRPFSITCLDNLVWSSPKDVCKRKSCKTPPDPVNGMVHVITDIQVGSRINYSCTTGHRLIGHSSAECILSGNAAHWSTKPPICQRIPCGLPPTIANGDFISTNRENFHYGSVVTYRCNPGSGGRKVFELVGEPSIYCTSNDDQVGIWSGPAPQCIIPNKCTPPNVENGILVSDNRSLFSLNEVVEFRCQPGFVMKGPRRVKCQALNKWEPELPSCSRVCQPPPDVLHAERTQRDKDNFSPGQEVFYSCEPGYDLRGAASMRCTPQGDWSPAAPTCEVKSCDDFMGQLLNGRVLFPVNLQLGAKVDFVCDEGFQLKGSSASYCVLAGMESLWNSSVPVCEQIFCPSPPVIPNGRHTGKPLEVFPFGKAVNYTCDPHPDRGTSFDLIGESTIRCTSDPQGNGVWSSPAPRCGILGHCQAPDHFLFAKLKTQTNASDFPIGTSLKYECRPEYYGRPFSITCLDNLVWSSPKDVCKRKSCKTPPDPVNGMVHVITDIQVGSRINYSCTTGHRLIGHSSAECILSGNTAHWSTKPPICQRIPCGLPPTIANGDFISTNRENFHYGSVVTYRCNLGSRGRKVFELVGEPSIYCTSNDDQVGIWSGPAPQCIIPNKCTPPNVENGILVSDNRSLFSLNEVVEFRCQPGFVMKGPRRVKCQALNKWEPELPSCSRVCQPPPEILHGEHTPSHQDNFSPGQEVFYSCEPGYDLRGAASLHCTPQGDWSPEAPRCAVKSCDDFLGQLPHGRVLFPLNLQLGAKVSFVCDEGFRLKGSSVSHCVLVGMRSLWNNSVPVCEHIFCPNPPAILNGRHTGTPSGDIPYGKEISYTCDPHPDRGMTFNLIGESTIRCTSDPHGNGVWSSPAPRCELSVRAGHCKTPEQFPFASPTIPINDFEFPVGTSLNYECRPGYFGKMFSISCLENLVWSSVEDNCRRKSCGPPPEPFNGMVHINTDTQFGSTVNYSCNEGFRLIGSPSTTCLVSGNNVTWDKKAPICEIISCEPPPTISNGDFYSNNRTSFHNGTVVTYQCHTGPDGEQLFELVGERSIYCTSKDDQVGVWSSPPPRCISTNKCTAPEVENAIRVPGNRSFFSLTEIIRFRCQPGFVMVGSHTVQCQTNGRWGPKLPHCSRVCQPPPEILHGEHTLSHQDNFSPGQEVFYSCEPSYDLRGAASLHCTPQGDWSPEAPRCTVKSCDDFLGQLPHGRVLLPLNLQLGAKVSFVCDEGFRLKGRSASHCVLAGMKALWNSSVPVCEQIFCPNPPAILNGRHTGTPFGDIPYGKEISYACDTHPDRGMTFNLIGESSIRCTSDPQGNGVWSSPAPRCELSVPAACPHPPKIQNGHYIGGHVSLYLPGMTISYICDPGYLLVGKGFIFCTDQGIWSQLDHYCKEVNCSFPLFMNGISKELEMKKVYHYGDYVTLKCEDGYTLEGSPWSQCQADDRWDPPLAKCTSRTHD

Experiments:
[1] = target: isolated human C3b (ih-C3b) (human) (UniProt P01024); experiment: ELISA, plate-bound CSP (465 nM) probed with sCD35 (5 µg/ml) (FIG. 5d)
[2] = target: isolated human iC3b (ih-iC3b) (human) (UniProt P01024); experiment: as above
[3] = target: T1, paired immunoglobulin receptor B (PIR-B) (murine) (UniProt P97484); experiment: flow cytometry, human CSP on Bw cells expressing PIR-B (FIG. 2c)
T1 sequence (looked up): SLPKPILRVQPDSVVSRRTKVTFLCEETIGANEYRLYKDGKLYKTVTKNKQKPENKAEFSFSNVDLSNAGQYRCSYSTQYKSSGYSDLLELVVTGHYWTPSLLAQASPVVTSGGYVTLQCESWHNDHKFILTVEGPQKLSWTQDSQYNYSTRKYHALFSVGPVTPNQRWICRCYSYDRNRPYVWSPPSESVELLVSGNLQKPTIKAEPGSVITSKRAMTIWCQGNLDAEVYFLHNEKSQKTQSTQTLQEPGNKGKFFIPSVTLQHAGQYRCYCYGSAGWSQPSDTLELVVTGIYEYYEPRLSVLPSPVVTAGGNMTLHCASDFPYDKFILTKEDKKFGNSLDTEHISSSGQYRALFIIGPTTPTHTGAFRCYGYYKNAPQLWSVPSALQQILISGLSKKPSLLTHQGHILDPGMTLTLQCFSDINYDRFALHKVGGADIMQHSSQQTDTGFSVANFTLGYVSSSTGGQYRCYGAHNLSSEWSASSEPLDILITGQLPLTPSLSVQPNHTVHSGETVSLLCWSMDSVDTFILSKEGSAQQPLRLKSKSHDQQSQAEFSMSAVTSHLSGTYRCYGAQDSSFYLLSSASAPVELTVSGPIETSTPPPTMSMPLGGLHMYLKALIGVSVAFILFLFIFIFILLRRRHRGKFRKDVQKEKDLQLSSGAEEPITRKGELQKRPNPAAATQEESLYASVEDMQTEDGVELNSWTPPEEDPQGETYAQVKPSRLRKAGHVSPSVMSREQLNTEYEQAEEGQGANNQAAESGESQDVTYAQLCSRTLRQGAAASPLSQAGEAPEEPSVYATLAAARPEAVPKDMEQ

binding [1]	binding [2]	binding [3]	Substance
binds	binds	–	soluble recombinant human CD35 extracellular domain (sCD35) (from UniProt P17927 42-1971) (receptor)
–	–	binds	isolated human C3b (ih-C3b) (from UniProt P01024) (ligand)
–	–	binds	isolated human iC3b (ih-iC3b) (from UniProt P01024) (ligand)
